Test results taken from PMC12024905.
These are yes or no findings as the source states them, for the method shown. Binding seen in cells or lysates may run through a third protein. Binding calls can cover weak binding; strength is not graded here.

Protein sequences, listed by entry. Tags and fused reporters are not part of them. Lines headed by an entry give the natural chain unless they say otherwise; changes in a name come on top.
UniProt P01584: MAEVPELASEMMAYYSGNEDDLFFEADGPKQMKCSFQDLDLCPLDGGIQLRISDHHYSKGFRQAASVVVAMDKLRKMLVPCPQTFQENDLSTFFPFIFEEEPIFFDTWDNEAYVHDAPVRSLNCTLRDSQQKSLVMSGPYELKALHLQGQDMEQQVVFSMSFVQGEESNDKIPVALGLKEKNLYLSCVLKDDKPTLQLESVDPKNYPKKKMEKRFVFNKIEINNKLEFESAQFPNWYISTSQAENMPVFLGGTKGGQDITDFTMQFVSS

Target: His-tagged IL-1β (IL-1β-His) (UniProt P01584)
Test: co-IP; anti-His antibody on protein A/G agarose beads; IL1R1 [0.5 μg] and IL-1β-His [0.2 μg] alone or with unlabeled IL-1β [0.2 ng], LN [0.5 μg] or SC [0.5 μg], 30 min; washed in PBS; blot with anti-IL1R1; both purified

## DHLSDNYTLDHDRAIH [Link N (LN)]
  binding: binds
